Reference: patent US12527789B2, “Inhibition of a tripartite VOR protein complex in multicellular organisms” (TECHNISCHE UNIVERSITÄT DRESDEN, priority 2018, dated 2026)
For at least one compound, name, drawing or mass did not settle the structure.

Legend:
Type in all cases: cell-based
FEMX-I cells = assay: Nuclear transfer of CD9-GFP+ EV-derived cargo proteins in FEMX-I cells (FIG. 5A)
Hela cells = assay: Nuclear transfer of CD9-GFP+ EV-derived cargo proteins in Hela cells (FIG. 5B)
[1] = target: T1, VAP-A, ORP3 and Rab7 (VOR) protein complex (Homo sapiens, UniProt Q9H4L5); assay: Immunoisolation with anti-ORP3 antibody from lysates of treated SW480 cells, immunoblotting for ORP3, VAP-A and Rab7 (FIG. 7); conditions: SW480 cells treated with 10 μM
T1 construct: detergent lysates prepared from untreated (control) and 10 μM hydroxy-itraconazole; endogenous in cells; host or cells: SW480 cells
T1 sequence (Q9H4L5 1-887): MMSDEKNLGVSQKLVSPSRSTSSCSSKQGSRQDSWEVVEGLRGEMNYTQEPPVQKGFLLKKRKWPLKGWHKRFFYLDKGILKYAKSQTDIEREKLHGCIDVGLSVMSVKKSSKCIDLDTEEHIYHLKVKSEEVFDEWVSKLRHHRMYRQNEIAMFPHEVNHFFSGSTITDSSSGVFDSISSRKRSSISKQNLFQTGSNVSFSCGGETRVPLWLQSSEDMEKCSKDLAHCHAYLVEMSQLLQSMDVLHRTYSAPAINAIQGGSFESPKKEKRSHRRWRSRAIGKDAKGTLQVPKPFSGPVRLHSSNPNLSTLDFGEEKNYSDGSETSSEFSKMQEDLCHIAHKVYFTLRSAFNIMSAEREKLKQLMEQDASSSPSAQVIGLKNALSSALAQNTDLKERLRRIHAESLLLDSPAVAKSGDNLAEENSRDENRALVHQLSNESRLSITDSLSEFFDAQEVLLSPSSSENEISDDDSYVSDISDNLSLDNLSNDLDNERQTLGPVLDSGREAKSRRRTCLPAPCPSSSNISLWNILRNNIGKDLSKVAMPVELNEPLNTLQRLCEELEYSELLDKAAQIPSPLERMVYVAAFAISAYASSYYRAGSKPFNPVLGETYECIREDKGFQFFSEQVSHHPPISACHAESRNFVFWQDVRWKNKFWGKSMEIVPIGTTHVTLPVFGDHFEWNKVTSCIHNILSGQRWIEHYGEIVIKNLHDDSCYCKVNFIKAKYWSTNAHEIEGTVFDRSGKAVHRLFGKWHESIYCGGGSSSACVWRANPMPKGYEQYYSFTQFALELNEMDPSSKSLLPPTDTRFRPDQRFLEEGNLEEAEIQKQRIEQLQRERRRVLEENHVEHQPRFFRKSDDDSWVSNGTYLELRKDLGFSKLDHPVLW
T1 sequence (Q9P0L0 1-249 partner): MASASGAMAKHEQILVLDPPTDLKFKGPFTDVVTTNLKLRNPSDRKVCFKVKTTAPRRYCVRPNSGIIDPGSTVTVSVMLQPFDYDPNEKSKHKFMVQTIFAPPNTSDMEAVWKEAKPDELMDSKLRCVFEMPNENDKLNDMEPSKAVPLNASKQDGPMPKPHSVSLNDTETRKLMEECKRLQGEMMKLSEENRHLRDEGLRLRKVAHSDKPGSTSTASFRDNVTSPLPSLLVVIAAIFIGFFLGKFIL

SMILES: CCC(C)n1ncn(-c2ccc(N3CCN(c4ccc(OCC5COC(Cn6cncn6)(c6ccc(Cl)cc6Cl)O5)cc4)CC3)cc2)c1=O (stereo not drawn) [itraconazole, Itraconazole]
- effect on nuclear transfer of the CD9-GFP+ EV-derived cargo proteins (FEMX-I cells): interferes with the nuclear transfer of the CD9-GFP^+ EV-derived cargo proteins
- effect on nuclear transfer of the CD9-GFP+ EV-derived cargo proteins (Hela cells): interferes with the nuclear transfer of the CD9-GFP^+ EV-derived cargo proteins
- co-immunoisolation of Rab7 with ORP3 [1]: no Rab7 is co-immunoisolated with ORP3
